Experimental data: doi:10.1101/2020.10.28.359091 (bioRxiv, 2020)
These are yes or no findings as the source states them, for the method shown. Some results given as binding are weak or reduced against the parent protein; the word gives no strength.

Molecular target: T1, RARα ligand-binding domain (RAR LBD) (human, UniProt P10276-1 176-421)
T1 sequence: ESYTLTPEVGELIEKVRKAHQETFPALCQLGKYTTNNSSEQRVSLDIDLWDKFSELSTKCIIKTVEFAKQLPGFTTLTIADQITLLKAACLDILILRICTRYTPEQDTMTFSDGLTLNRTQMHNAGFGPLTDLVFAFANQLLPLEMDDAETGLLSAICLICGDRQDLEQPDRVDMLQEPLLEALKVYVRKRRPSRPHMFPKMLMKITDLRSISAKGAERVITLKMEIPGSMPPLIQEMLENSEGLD
Test: fluorescence polarisation

- binding: binds
Binder: CTSLKEKHKILHRLLQDSS (Alexa Fluor 488 C5 maleimide on the additional cysteine) [TIF2 NR2 peptide with additional cysteine (…), Alexa Fluor 488 labelled]
